# Measured values taken from patent US20200164046A1.
# The chains behind the UniProt entries cited, without tags or fusion partners.
# UniProt P31749: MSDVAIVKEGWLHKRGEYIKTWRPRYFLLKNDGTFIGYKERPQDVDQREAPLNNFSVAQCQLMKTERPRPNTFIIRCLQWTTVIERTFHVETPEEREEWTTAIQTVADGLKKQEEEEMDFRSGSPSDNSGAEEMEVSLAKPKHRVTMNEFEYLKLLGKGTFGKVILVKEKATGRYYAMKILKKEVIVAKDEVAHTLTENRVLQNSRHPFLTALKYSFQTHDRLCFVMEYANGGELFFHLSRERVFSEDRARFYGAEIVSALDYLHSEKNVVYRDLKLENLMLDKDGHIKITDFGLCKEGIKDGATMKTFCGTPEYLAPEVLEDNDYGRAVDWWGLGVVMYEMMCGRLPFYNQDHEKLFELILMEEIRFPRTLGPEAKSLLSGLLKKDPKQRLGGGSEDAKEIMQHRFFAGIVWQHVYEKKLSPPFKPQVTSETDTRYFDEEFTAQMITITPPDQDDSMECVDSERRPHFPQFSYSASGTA
# UniProt Q05397: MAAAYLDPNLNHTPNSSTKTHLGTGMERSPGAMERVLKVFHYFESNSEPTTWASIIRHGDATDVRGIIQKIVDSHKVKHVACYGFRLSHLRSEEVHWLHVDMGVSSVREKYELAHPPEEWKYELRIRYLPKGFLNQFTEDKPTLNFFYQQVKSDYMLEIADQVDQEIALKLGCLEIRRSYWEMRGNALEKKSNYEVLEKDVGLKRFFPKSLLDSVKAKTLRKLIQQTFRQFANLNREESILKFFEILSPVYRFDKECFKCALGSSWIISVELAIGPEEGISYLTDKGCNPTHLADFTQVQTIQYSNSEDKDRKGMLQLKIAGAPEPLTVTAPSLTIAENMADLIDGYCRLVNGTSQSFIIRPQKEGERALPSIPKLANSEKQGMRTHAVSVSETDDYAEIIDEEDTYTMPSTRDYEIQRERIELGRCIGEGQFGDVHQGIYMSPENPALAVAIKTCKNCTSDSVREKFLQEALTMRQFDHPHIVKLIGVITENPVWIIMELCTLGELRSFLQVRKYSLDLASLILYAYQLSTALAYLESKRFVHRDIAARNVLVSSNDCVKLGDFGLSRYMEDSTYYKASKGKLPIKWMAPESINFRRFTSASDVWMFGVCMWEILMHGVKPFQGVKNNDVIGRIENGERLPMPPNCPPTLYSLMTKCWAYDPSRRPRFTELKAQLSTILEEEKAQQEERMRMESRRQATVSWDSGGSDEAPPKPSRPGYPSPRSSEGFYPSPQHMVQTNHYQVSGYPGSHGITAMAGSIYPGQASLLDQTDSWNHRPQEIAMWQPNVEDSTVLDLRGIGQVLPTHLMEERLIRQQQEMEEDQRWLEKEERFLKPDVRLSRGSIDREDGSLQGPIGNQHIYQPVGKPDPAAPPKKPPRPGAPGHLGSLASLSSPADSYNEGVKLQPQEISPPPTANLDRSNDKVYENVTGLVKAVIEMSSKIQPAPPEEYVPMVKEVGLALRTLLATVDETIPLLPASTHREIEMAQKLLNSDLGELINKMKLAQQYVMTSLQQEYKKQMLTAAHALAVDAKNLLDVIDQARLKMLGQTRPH
# These are yes or no findings as the source states them, for the method shown. Binding seen in cells or lysates may run through a third protein. Some entries that bind do so weakly or less than the wild type.
# What was measured:
# [1] = target: Akt1 (endogenous, in lysates of human Caco-2 or SW620 colon cancer cells) (human) (UniProt P31749); test: co-immunoprecipitation with anti-HA from SW620 cells transfected with HA-FAK, western blot for Akt1
# GST-Akt1 [GST: P08515] = test: GST pull-down: GST-Akt1 on Sepharose beads, lysate of transfected Caco-2 cells, western blot for HA
substance,measurement,setting,value
HA-tagged wild type FAK (from UniProt Q05397 1-1052) (enzyme),binding,[1],binds
same,binding,GST-Akt1 [GST: P08515],binds
